Measurements as given in paper PMC3578790.

Amino acid sequences for entries named in this document (tags omitted).
UniProt Q9FDW1, whole entry S145A: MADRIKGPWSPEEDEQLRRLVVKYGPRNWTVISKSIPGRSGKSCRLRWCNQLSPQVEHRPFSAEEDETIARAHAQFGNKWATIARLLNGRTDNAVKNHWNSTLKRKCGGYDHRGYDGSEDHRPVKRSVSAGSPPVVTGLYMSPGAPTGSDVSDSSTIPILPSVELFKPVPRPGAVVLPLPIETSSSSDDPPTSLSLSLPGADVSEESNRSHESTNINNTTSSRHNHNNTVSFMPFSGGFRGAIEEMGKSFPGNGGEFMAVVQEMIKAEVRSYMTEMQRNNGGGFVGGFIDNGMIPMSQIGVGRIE
UniProt Q9FDW1, whole entry S145D: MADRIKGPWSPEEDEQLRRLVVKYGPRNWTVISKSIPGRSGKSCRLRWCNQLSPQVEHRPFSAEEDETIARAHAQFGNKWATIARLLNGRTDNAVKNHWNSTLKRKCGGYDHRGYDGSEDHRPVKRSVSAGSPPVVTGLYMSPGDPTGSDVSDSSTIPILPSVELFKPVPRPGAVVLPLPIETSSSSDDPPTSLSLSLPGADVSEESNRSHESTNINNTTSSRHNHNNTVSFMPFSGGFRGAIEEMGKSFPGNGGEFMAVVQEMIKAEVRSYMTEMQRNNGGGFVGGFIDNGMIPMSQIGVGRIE

How the values were obtained:
MYB44 S145A = MYB44 S145A (UniProt Q9FDW1); test: competition with a labelled probe; details: 100-fold excess unlabelled vs labelled MBSII, specificity as wild type; 10 mM Tris pH 8.0, 5 mM MgCl2, 100 mM KCl, 0.02% Triton X-100, 0.1 mg/ml BSA, 0.25% Tween, 2.5 mM DTT, 3 ng/ul poly(dIdC); 30 min room temperature; recombinant protein; residues 1-305; label: none (competitor)
MYB44 S145D = MYB44 S145D (UniProt Q9FDW1); test: competition with a labelled probe; details: 100-fold excess unlabelled vs labelled MBSII, specificity as wild type; 10 mM Tris pH 8.0, 5 mM MgCl2, 100 mM KCl, 0.02% Triton X-100, 0.1 mg/ml BSA, 0.25% Tween, 2.5 mM DTT, 3 ng/ul poly(dIdC); 30 min room temperature; recombinant protein; residues 1-305; label: none (competitor)

Sequence	binding result (MYB44 S145A)	binding result (MYB44 S145D)
AGCTTAATGTGTGTCAGTTAGGGTGTCTCG (double strand) [MBSI]	binds more weakly	binds more weakly
AGCTTCAAAAGCCAGCCACG (double strand) [MBSIImut]	no binding	no binding

A negative result means that nothing was seen under these conditions. At least one verdict was read from the data and is not stated in words by the source. The exact form of at least one protein or probe is not confirmed. A weaker result is weaker than the reference pair of the same experiment.
